Test results: patent US20250361297A1, “ANTI- SIGLEC-15 BINDING MOLECULES AND METHODS OF USE” (ADAPTAM THERAPEUTICS, S.L., priority 2024, published 2025)

Tests used:
[1] = molecular target: recombinant cynomolgus Siglec-15-his protein (Bonopusbio, CW70-50 ug) (cynomolgus monkey); test: ELISA on coated recombinant cynomolgus Siglec-15-his
[2] = molecular target: recombinant cynomolgus Siglec-15-his protein (Bonopusbio, CW70-50 ug) (cynomolgus monkey); test: ELISA, plate coated with 100 ng per well recombinant cynomolgus Siglec-15 (supplier not named in Example 3), HRP anti-mouse IgG, OD450
[3] = molecular target: recombinant mouse Siglec-15-his protein (Bonopusbio, CW71-50 ug) (mouse); test: ELISA on coated recombinant mouse Siglec-15-his
[4] = molecular target: recombinant mouse Siglec-15-his protein (Bonopusbio, CW71-50 ug) (mouse); test: ELISA, plate coated with 2 µg/ml mouse Siglec-15-his, antibody 3-fold dilutions from 198 nM, HRP goat anti-human IgG Fc, OD 450 nm
[5] = molecular target: recombinant mouse Siglec-15-his protein (Bonopusbio, CW71-50 ug) (mouse); test: ELISA, plate coated with 100 ng per well recombinant mouse Siglec-15 (supplier not named in Example 3), HRP anti-mouse IgG, OD450
[6] = molecular target: recombinant mouse Siglec-15-his protein (Bonopusbio, CW71-50 ug) (mouse); test: ELISA, plate coated with recombinant mouse Siglec-15-his, antibody titrated up to about 200 nM, OD 450 nm
[7] = molecular target: recombinant cynomolgus Siglec-15-his protein (Bonopusbio, CW70-50 ug) (cynomolgus monkey); test: ELISA, plate coated with recombinant cynomolgus Siglec-15-his, antibody titrated up to about 200 nM, OD 450 nm
[8] = molecular target: recombinant cynomolgus Siglec-15-his protein (Bonopusbio, CW70-50 ug) (cynomolgus monkey); test: ELISA, plate coated with 2 µg/ml cynomolgus Siglec-15-his, antibody 3-fold dilutions from 198 nM, HRP goat anti-human IgG Fc, OD 450 nm
[9] = molecular target: recombinant mouse Siglec-15-his protein (Bonopusbio, CW71-50 ug) (mouse); test: ELISA on coated recombinant mouse Siglec-15-his (FIG. 15C)
[10] = molecular target: recombinant cynomolgus Siglec-15-his protein (Bonopusbio, CW70-50 ug) (cynomolgus monkey); test: ELISA on coated recombinant cynomolgus Siglec-15-his (FIG. 15B)
[11] = molecular target: recombinant mouse Siglec-15-his protein (Bonopusbio, CW71-50 ug) (mouse); test: ELISA, plate coated with 2 µg/ml mouse Siglec-15-his, antibody 3-fold dilutions from 198 nM, HRP goat anti-human IgG Fc, OD450
[12] = molecular target: recombinant cynomolgus Siglec-15-his protein (Bonopusbio, CW70-50 ug) (cynomolgus monkey); test: ELISA, plate coated with 2 µg/ml cynomolgus Siglec-15-his, antibody 3-fold dilutions from 198 nM, HRP goat anti-human IgG Fc, OD450

Measured: binding

B1: S15B1 (antibody, V domains shown)
VH: QVQLQQSGPELVKPGASVKISCKASGYAFSSSWMNWVKQRPGKGLEWIGRIYPGHGETNYNGKFKDKATVTADKSSSTTYMQLSSLTSEDSAVYFCARVDNSDPYYFDYWGQGTTLTVSS
VL: DIVLTQSPASLAVSLGQRATISCRASKSVSTSGYSYMHWYQQKPGQPPKLLIYLASNLESGVPARFSGSGSGTDFTLNIHPVEEEDAATYYCQHGRELPFTFGSGTKLEIK
binds: [1] | [2] | [3] | [4] | [5] | [6] | [7] | [8]

B2: S15B1-VH2 + VL2 (antibody, V domains shown)
VH: QVQLVQSGAEVKKPGASVKVSCKASGYAFSSSWMNWVRQAPGQGLEWIGRIYPGHGETNYNGKFKDRVTMTADTSTSTVYMELSSLRSEDTAVYFCARVDNSDPYYFDYWGQGTTVTVSS
VL: B1 VL with L15P, S22T, N78T, H80N, E84A, A87T, S104G
binds: [1] | [3] | [6] | [7]

B3: S15B1-VH3 + VL1 (antibody, V domains shown)
VH: B2 VH with R38K, V68A
VL: B1 VL with L15P, S22T, N78T, H80N, E84A, A87T, T89N, S104G
binds: [1] | [3] | [6] | [7]

B4: S15B1-VH3 + VL2 (antibody, V domains shown)
VH: B2 VH with R38K, V68A
VL: B1 VL with L15P, S22T, N78T, H80N, E84A, A87T, S104G
binds: [1] | [3] | [6] | [7]

B5: ZLA-1243-E01 (antibody, V domains shown)
VH: QVQLVQSGGGLVQPGRSLRLSCAASGFTFDDYAMHWVRQAPGKGLEWVSGISWNSGSIGYADSVKGRFTISRDNAKNSLYLQMNSLRAEDTALYYCAKGLWPSYDLDAFDIWGQGTMVTVSS
VL: QSALTQPASVSGSPGQSITLSCTGTSSDVGAYNFVSWYQQHPGTAPKLMIYEVSNRPSGVSDRFSGSKSGNTASLTISGLQAEDEADYYCSSYTSTIPPFVFGTGTKVTVL
binds: [9] | [10] | [11] | [12]

Residue numbers refer to the chain shown, from its start. No constants are given. Whether binding was seen depends on the method and setting. A result given as binding can be weak or reduced; the word gives no strength.
